# Results reported in the supplement of paper PMC8728848.
# Some of the results follow.
# B1: pilr alpha (protein)
# chain: MLYGVTQPKHLSASMGGSVEIPFSFYYPWELATAPDVRISWRRGHFHRQSFYSTRPPSIHKDYVNRLFLNWTEGQKSGFLRISNLQKQDQSVYFCRVELDTRSSGRQQWQSIEGTKLSIT
# Tests used:
# Assay in all cases: glycan array binding signal (z-score within array); higher = stronger binding
# Settings in all cases: glycan notation: IUPAC condensed, linker removed
# [1] = molecular target: Man(a1-2)Man(a1-3)[Man(a1-2)Man(a1-6)]Man(a1-6)[Man(a1-2)Man(a1-2)Man(a1-3)]Man
# How it was run: (§1)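 The binding signal is a Z-score computed within each array. Data were drawn from 3228 arrays in the Consortium for Functional Glycomics database, restricted to those with a known protein sequence. Scores were averaged over arrays of the same protein sequence at different concentrations or buffers, and over linkers, and negative values can be taken as non-binding.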
# [2] = molecular target: Man(a1-2)Man(a1-3)[Man(a1-2)Man(a1-6)]Man(a1-6)[Man(a1-2)Man(a1-2)Man(a1-3)]Man(b1-4)GlcNAc(b1-4)GlcNAc
# How it was run: as §1
# [3] = molecular target: Man(a1-2)Man(a1-3)[Man(a1-6)]Man(a1-6)[Man(a1-2)Man(a1-3)]Man(b1-4)GlcNAc(b1-4)GlcNAc
# How it was run: as §1
# [4] = molecular target: Man(a1-2)Man(a1-6)[Man(a1-3)]Man(a1-6)[Man(a1-2)Man(a1-2)Man(a1-3)]Man
# How it was run: as §1
# [5] = molecular target: Man(a1-2)Man(a1-6)[Man(a1-3)]Man(a1-6)[Man(a1-2)Man(a1-2)Man(a1-3)]Man(b1-4)GlcNAc(b1-4)GlcNAc
# How it was run: as §1
# Man(a1-3)[Man(a1-6)]Man = molecular target: Man(a1-3)[Man(a1-6)]Man
# How it was run: as §1
# [6] = molecular target: Man(a1-3)[Man(a1-6)]Man(a1-6)[Man(a1-2)Man(a1-3)]Man(b1-4)GlcNAc(b1-4)GlcNAc
# How it was run: as §1
# [7] = molecular target: Man(a1-3)[Man(a1-6)]Man(a1-6)[Man(a1-3)]Man
# How it was run: as §1
# [8] = molecular target: Man(a1-3)[Man(a1-6)]Man(a1-6)[Man(a1-3)]Man(b1-4)GlcNAc(b1-4)GlcNAc
# How it was run: as §1
# [9] = molecular target: Man(a1-3)[Man(a1-6)]Man(b1-4)GlcNAc(b1-4)GlcNAc
# How it was run: as §1
# [10] = molecular target: Man(a1-3)[Man(a1-6)]Man(b1-4)GlcNAc(b1-4)[Fuc(a1-6)]GlcNAc
# How it was run: as §1
# Man(a1-6)Man = molecular target: Man(a1-6)Man
# How it was run: as §1
# Man(b1-4)GlcNAc = molecular target: Man(b1-4)GlcNAc
# How it was run: as §1
# MurNAc(b1-4)GlcNAc = molecular target: MurNAc(b1-4)GlcNAc
# How it was run: as §1
# Neu5Ac(a2-3)Gal = molecular target: Neu5Ac(a2-3)Gal
# How it was run: as §1
# [11] = molecular target: Neu5Ac(a2-3)Gal(b1-3)GalNAc
# How it was run: as §1
# [12] = molecular target: Neu5Ac(a2-3)Gal(b1-3)GalNAc(b1-3)Gal(a1-4)Gal(b1-4)Glc
# How it was run: as §1
# [13] = molecular target: Neu5Ac(a2-3)Gal(b1-3)GalNAc(b1-4)[Neu5Ac(a2-3)]Gal(b1-4)Glc
# How it was run: as §1
# [14] = molecular target: Neu5Ac(a2-3)Gal(b1-3)GalNAc(b1-4)[Neu5Ac(a2-8)Neu5Ac(a2-3)]Gal(b1-4)Glc
# How it was run: as §1
# [15] = molecular target: Neu5Ac(a2-3)Gal(b1-3)GalNAc6S
# How it was run: as §1
# [16] = molecular target: Neu5Ac(a2-3)Gal(b1-3)GlcNAc
# How it was run: as §1
# [17] = molecular target: Neu5Ac(a2-3)Gal(b1-3)GlcNAc(b1-2)Man
# How it was run: as §1
# [18] = molecular target: Neu5Ac(a2-3)Gal(b1-3)GlcNAc(b1-2)Man(a1-3)[GlcNAc(b1-4)][Neu5Ac(a2-3)Gal(b1-3)GlcNAc(b1-2)Man(a1-6)]Man(b1-4)GlcNAc(b1-4)GlcNAc
# How it was run: as §1
# [19] = molecular target: Neu5Ac(a2-3)Gal(b1-3)GlcNAc(b1-2)Man(a1-3)[Neu5Ac(a2-3)Gal(b1-3)GlcNAc(b1-2)Man(a1-6)]Man(b1-4)GlcNAc(b1-4)GlcNAc
# How it was run: as §1
# [20] = molecular target: Neu5Ac(a2-3)Gal(b1-3)GlcNAc(b1-3)Gal(b1-3)GlcNAc
# How it was run: as §1
# [21] = molecular target: Neu5Ac(a2-3)Gal(b1-3)GlcNAc(b1-3)Gal(b1-4)GlcNAc
# How it was run: as §1
# [22] = molecular target: Neu5Ac(a2-3)Gal(b1-3)GlcNAc(b1-3)GalNAc
# How it was run: as §1
# [23] = molecular target: Neu5Ac(a2-3)Gal(b1-3)GlcNAc(b1-4)Gal(b1-4)Glc
# How it was run: as §1
# [24] = molecular target: Neu5Ac(a2-3)Gal(b1-3)GlcNAc(b1-6)GalNAc
# How it was run: as §1
# [25] = molecular target: Neu5Ac(a2-3)Gal(b1-3)GlcNAc6S
# How it was run: as §1
# [26] = molecular target: Neu5Ac(a2-3)Gal(b1-3)[Fuc(a1-4)]GlcNAc
# How it was run: as §1
# [27] = molecular target: Neu5Ac(a2-3)Gal(b1-3)[Fuc(a1-4)]GlcNAc(b1-3)Gal(b1-3)[Fuc(a1-4)]GlcNAc
# How it was run: as §1
# [28] = molecular target: Neu5Ac(a2-3)Gal(b1-3)[Fuc(a1-4)]GlcNAc(b1-3)Gal(b1-4)[Fuc(a1-3)]GlcNAc
# How it was run: as §1
# [29] = molecular target: Neu5Ac(a2-3)Gal(b1-3)[GlcNAc(b1-6)]GalNAc
# How it was run: as §1
# [30] = molecular target: Neu5Ac(a2-3)Gal(b1-3)[Neu5Ac(a2-6)]GalNAc
# How it was run: as §1
# [31] = molecular target: Neu5Ac(a2-3)Gal(b1-3)[Neu5Ac(a2-6)]GlcNAc(b1-3)[Fuc(a1-3)[Gal(b1-4)]GlcNAc(b1-6)]Gal(b1-4)Glc
# How it was run: as §1
# [32] = molecular target: Neu5Ac(a2-3)Gal(b1-3)]Neu5Ac(a2-3)Gal(b1-4)]GlcNAc
# How it was run: as §1
# Neu5Ac(a2-3)Gal(b1-4)Glc = molecular target: Neu5Ac(a2-3)Gal(b1-4)Glc
# How it was run: as §1
# [33] = molecular target: Neu5Ac(a2-3)Gal(b1-4)GlcNAc
# How it was run: as §1
# [34] = molecular target: Neu5Ac(a2-3)Gal(b1-4)GlcNAc(b1-2)Man
# How it was run: as §1
# [35] = molecular target: Neu5Ac(a2-3)Gal(b1-4)GlcNAc(b1-2)Man(a1-3)[GlcNAc(b1-4)][Neu5Ac(a2-3)Gal(b1-4)GlcNAc(b1-2)Man(a1-6)]Man(b1-4)GlcNAc(b1-4)GlcNAc
# How it was run: as §1
# [36] = molecular target: Neu5Ac(a2-3)Gal(b1-4)GlcNAc(b1-2)Man(a1-3)[Neu5Ac(a2-3)Gal(b1-4)GlcNAc(b1-2)Man(a1-6)]Man(b1-4)GlcNAc(b1-4)GlcNAc
# How it was run: as §1
# [37] = molecular target: Neu5Ac(a2-3)Gal(b1-4)GlcNAc(b1-2)Man(a1-3)[Neu5Ac(a2-3)Gal(b1-4)GlcNAc(b1-2)Man(a1-6)]Man(b1-4)GlcNAc(b1-4)[Fuc(a1-6)]GlcNAc
# How it was run: as §1
# [38] = molecular target: Neu5Ac(a2-3)Gal(b1-4)GlcNAc(b1-2)Man(a1-3)[Neu5Ac(a2-6)Gal(b1-4)GlcNAc(b1-2)Man(a1-6)]Man(b1-4)GlcNAc(b1-4)GlcNAc
# How it was run: as §1
# [39] = molecular target: Neu5Ac(a2-3)Gal(b1-4)GlcNAc(b1-2)[Neu5Ac(a2-3)Gal(b1-4)GlcNAc(b1-4)]Man(a1-3)[GlcNAc(b1-4)][Neu5Ac(a2-3)Gal(b1-4)GlcNAc(b1-2)[Neu5Ac(a2-3)Gal(b1-4)GlcNAc(b1-6)]Man(a1-6)]Man(b1-4)GlcNAc(b1-4)GlcNAc
# How it was run: as §1
binder,measurement,setting,value
B1,glycan array binding signal (z-score),[1],0.506
same,glycan array binding signal (z-score),[2],-0.19
same,glycan array binding signal (z-score),[3],0.363
same,glycan array binding signal (z-score),[4],0.278
same,glycan array binding signal (z-score),[5],-0.021
same,glycan array binding signal (z-score),Man(a1-3)[Man(a1-6)]Man,-0.008
same,glycan array binding signal (z-score),[6],-0.054
same,glycan array binding signal (z-score),[7],-0.019
same,glycan array binding signal (z-score),[8],1.32
same,glycan array binding signal (z-score),[9],-0.357
same,glycan array binding signal (z-score),[10],-0.08
same,glycan array binding signal (z-score),Man(a1-6)Man,1.2
same,glycan array binding signal (z-score),Man(b1-4)GlcNAc,0.185
same,glycan array binding signal (z-score),MurNAc(b1-4)GlcNAc,-0.076
same,glycan array binding signal (z-score),Neu5Ac(a2-3)Gal,-0.92
same,glycan array binding signal (z-score),[11],-0.231
same,glycan array binding signal (z-score),[12],0.025
same,glycan array binding signal (z-score),[13],-0.367
same,glycan array binding signal (z-score),[14],-0.149
same,glycan array binding signal (z-score),[15],-0.67
same,glycan array binding signal (z-score),[16],0.233
same,glycan array binding signal (z-score),[17],-0.606
same,glycan array binding signal (z-score),[18],-0.235
same,glycan array binding signal (z-score),[19],0.101
same,glycan array binding signal (z-score),[20],-0.035
same,glycan array binding signal (z-score),[21],-0.013
same,glycan array binding signal (z-score),[22],-0.652
same,glycan array binding signal (z-score),[23],-0.638
same,glycan array binding signal (z-score),[24],-0.073
same,glycan array binding signal (z-score),[25],0.095
same,glycan array binding signal (z-score),[26],-0.616
same,glycan array binding signal (z-score),[27],0.274
same,glycan array binding signal (z-score),[28],-0.971
same,glycan array binding signal (z-score),[29],-0.383
same,glycan array binding signal (z-score),[30],-0.4
same,glycan array binding signal (z-score),[31],-0.552
same,glycan array binding signal (z-score),[32],-0.162
same,glycan array binding signal (z-score),Neu5Ac(a2-3)Gal(b1-4)Glc,0.431
same,glycan array binding signal (z-score),[33],-0.33
same,glycan array binding signal (z-score),[34],-0.018
same,glycan array binding signal (z-score),[35],-0.908
same,glycan array binding signal (z-score),[36],-0.298
same,glycan array binding signal (z-score),[37],-0.569
same,glycan array binding signal (z-score),[38],0.094
same,glycan array binding signal (z-score),[39],-1.02
